Some of the results follow.
Biological target: T1, OsSMF1 (Oryza sativa, UniProt Q6ZLB0 1-436)
T1 sequence: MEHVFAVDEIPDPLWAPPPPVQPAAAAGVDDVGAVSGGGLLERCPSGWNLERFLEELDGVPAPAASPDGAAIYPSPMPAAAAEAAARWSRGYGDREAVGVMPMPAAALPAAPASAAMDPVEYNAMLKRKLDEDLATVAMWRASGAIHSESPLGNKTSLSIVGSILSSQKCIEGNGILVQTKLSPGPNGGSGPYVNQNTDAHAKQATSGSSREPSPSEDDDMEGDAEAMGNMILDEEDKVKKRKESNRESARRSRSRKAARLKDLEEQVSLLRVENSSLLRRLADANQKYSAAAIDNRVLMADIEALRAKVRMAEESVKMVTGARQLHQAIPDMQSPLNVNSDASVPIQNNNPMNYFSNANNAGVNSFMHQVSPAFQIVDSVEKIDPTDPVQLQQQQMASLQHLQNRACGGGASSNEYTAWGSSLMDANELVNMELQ
Assay: protein-binding microarray (RPBM); PBS, 2% BSA, 51.3 ng/ul salmon testes DNA, 50 uM zinc acetate, 200 nM TF, 25 C, 1 h; high values mean tight binding
Settings: protein: recombinant; tags: N-terminal polyhistidine and DsRed monomer fusion (pET32a); chain copies: 2; label: CyDye5-dUTP incorporated in the synthesized complementary strand; 3' TTTTT single-stranded linker to array surface; dsDNA, one strand shown
Summary of the method: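 Ni–NTA purification followed expression in E. coli BL21-CodonPlus of transcription factors fused N-terminally to a polyhistidine tag and DsRed. At 200 nM in PBS with 2% BSA, salmon testes DNA and 50 µM zinc acetate, the protein was incubated for 1 h at 25 °C with a custom Agilent array that had been primer-extended with Cy5-dUTP and blocked with 2% BSA. After washing, the array was read on an Axon 4000B scanner. The binding signal is per-feature fluorescence intensity in arbitrary units.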

Sequence | binding signal
CGAACCCGACTCCCTCCACAATTCCGCTAGTCCGAGTCAACGGAGTCACCTAGTGCAG | 4820 fluorescence intensity (a.u.)
TGACATGTAGCACTCACATGAGTCAATGACATATGGGTCACGGAGTCACCTAGTGCAG | 6640 fluorescence intensity (a.u.)
CTGGTTGCTTGCGTGCTGGTTTGGCTTTGGATTGAACAATCGGAGTCACCTAGTGCAG | 3170 fluorescence intensity (a.u.)
CTCGCGCGCGTGGTGTCACGTCTTGACCCGCCGCTCCGACCGGAGTCACCTAGTGCAG | 4096 fluorescence intensity (a.u.)
CATCTCCTACCTCCATCGATCCATCTATATAACCCATGGTCGGAGTCACCTAGTGCAG | 3380 fluorescence intensity (a.u.)
TATATACATTCCGAGCTAGGTCAGCATATTGCAACAGCTACGGAGTCACCTAGTGCAG | 3710 fluorescence intensity (a.u.)
CCACTGCCCCTCCATGCGCGCGCGCGTGCGTTGCTCAGCTCGGAGTCACCTAGTGCAG | 3480 fluorescence intensity (a.u.)
CGAGAAAATGGACAGTATGCCACCCTATAGATTGGGTTCGCGGAGTCACCTAGTGCAG | 3180 fluorescence intensity (a.u.)
ATTGTTGGGTATCTATTGGGTATGCTCTAATAGTCATGTTCGGAGTCACCTAGTGCAG | 3610 fluorescence intensity (a.u.)
GAGCTAGCAGACAACTATCAAGAGTCACATGAACTTCAGACGGAGTCACCTAGTGCAG | 3140 fluorescence intensity (a.u.)
CTGTGGTGTACGAGCGCAATGTGTAATGTCGTCGTTGGGGCGGAGTCACCTAGTGCAG | 3350 fluorescence intensity (a.u.)
TCTAGATGAATCTGCCAACTTGGTATGTGCCATTATTATGCGGAGTCACCTAGTGCAG | 6570 fluorescence intensity (a.u.)
GAAAACCAAGTCAACGCTGCCACGTCAGTGAAACCGTCATCGGAGTCACCTAGTGCAG | 22900 fluorescence intensity (a.u.)
GTTGACCCGCAGTTCCCCTTTGTTTTCCACGTGTTTCTTCCGGAGTCACCTAGTGCAG | 7790 fluorescence intensity (a.u.)
CTACTAGAGCTGTAGCTGACGTGGGTCCACCGGGCAGCGACGGAGTCACCTAGTGCAG | 19400 fluorescence intensity (a.u.)
TAAAGTGGTGATCTTTAGTCCCGGTTTGTGACATCAACCGCGGAGTCACCTAGTGCAG | 3530 fluorescence intensity (a.u.)
TCCAGGCGGCGAGACGTGACCAAATCACGTACAAGTCGTCCGGAGTCACCTAGTGCAG | 3160 fluorescence intensity (a.u.)
TTCTATGGCCGTTGATGTAGGGGTGCTTGTGTGGATGATGCGGAGTCACCTAGTGCAG | 3400 fluorescence intensity (a.u.)
CGTTTCAATTCGGATGATAGGGGCATTGTTTCCTCGTGGACGGAGTCACCTAGTGCAG | 3680 fluorescence intensity (a.u.)
GCCGGATATGGGAGGATATATAAGAGTCTGATGATAAAATCGGAGTCACCTAGTGCAG | 3220 fluorescence intensity (a.u.)
GCGTGCGTCAGACCGCCTGTCGCCACCTAACCCACGATCTCGGAGTCACCTAGTGCAG | 3820 fluorescence intensity (a.u.)

Sequence | binding signal
TTTAGTTATTACTACCACCACAGCACTACTAGAAATTAGGCGGAGTCACCTAGTGCAG | 8770 fluorescence intensity (a.u.)
TATCGGAAATGGGACCGTCGGAACGGAATATATCGATATTCGGAGTCACCTAGTGCAG | 25700 fluorescence intensity (a.u.)
TACTTTTACGCTCCGTGGGCCAGCGCGTCACGTTGGAGAGCGGAGTCACCTAGTGCAG | 4360 fluorescence intensity (a.u.)
GTTCTTGTTGATGCCCAATGATGATCCTTTAATTGTCATGCGGAGTCACCTAGTGCAG | 3650 fluorescence intensity (a.u.)
TACCGTCGGTTGACTATGTGTTGACCGTTAACTCTCAAGTCGGAGTCACCTAGTGCAG | 3870 fluorescence intensity (a.u.)
AAACCTCCAATCCCCAATAGCCCACGTACGGTTGCAGACACGGAGTCACCTAGTGCAG | 3420 fluorescence intensity (a.u.)
AGGCCACGCCAGCCCAGCTTGCCCGCGCCCCTCCTTCAGTCGGAGTCACCTAGTGCAG | 4880 fluorescence intensity (a.u.)
CACTTCGTCTCCTCCGCTCCTTGCGCCGCCGCCAAGACGACGGAGTCACCTAGTGCAG | 24100 fluorescence intensity (a.u.)
TCTTGCATTGTTGCATCATCAGCACCCAACTTTTGCAGATCGGAGTCACCTAGTGCAG | 5810 fluorescence intensity (a.u.)
GGAGCATATCGTAGGTGTGCATGTCAGCAATGAAGGATTTCGGAGTCACCTAGTGCAG | 4020 fluorescence intensity (a.u.)
CAGCATCTATGTCAGTCACCAGCGACCTCATTACCAGAAGCGGAGTCACCTAGTGCAG | 3380 fluorescence intensity (a.u.)
CGTAGACGAGGTGGAGGTGCGGCCACGATCGACGGGAGCACGGAGTCACCTAGTGCAG | 26400 fluorescence intensity (a.u.)
AATACGTTTTCCTACCGTGAAGGCGTATGCATATTTTACCCGGAGTCACCTAGTGCAG | 4000 fluorescence intensity (a.u.)
CTTCAGCCCAGAGTACTGGAGTTTGGCACACCGGAGTCAGCGGAGTCACCTAGTGCAG | 4030 fluorescence intensity (a.u.)
TATGGATATGATCCTTTGTTATCCACGTGCACGCAATATCCGGAGTCACCTAGTGCAG | 4230 fluorescence intensity (a.u.)
TTCAGGATGAATGGTACGTAACATGATAGGACACTATTCACGGAGTCACCTAGTGCAG | 48700 fluorescence intensity (a.u.)
GAGACTGCCCCGTCTGCGCCAACACGTCCAGAACGTTGCACGGAGTCACCTAGTGCAG | 4040 fluorescence intensity (a.u.)
TAACATAGTTGATATTGTTTAATGTCATGACAAAGAATGACGGAGTCACCTAGTGCAG | 3580 fluorescence intensity (a.u.)
AGCTCCACAACATCGAAGCAGTGACACTGTCCCGAACTCGCGGAGTCACCTAGTGCAG | 22600 fluorescence intensity (a.u.)
TTGCTGAACTGCATATGTCAGCTTAACTCTGAAACATCATCGGAGTCACCTAGTGCAG | 4090 fluorescence intensity (a.u.)
AGCTACCACTTCACACTCAGCTAGTCAAGATTACCTGGCACGGAGTCACCTAGTGCAG | 3400 fluorescence intensity (a.u.)

Random excerpt: 3 records from the list
Sequence | binding signal
AAACCTCCAATCCCCAATAGCCCACGTACGGTTGCAGACACGGAGTCACCTAGTGCAG | 3420 fluorescence intensity (a.u.)
CGTTTCAATTCGGATGATAGGGGCATTGTTTCCTCGTGGACGGAGTCACCTAGTGCAG | 3680 fluorescence intensity (a.u.)
CAGCATCTATGTCAGTCACCAGCGACCTCATTACCAGAAGCGGAGTCACCTAGTGCAG | 3380 fluorescence intensity (a.u.)
